Experimental data reported in patent publication US20180368404A1, “3-PYRIDYL HETEROBICYCLIC COMPOUND FOR CONTROLLING INVERTEBRATE PESTS” (BASF SE, priority 2014, published 2018).
Some of these results come from one statement about several compounds together.

How the values were obtained:
Assay type in all cases: in vivo
[1] = system: Cowpea Aphid (Aphis craccivora); assay: Cowpea aphid spray test on potted cowpea plants; details: 500 ppm, population reduction assessed after 24, 72 and 120 hours
Protocol: If not otherwise specified the test solutions were prepared as follows:
The active compound was dissolved at the desired concentration in a mixture of 1:1 (vol:vol) distilled water: acetone. The test solution was prepared at the day of use and in general at concentrations of ppm (wt/vol).
Potted cowpea plants colonized with 100-150 aphids of various stages were sprayed after the pest population had been recorded. Population reduction was assessed after 24, 72, and 120 hours.

[2] = system: Cotton Aphid (Aphis gossypii, Mixed Life Stages); assay: Cotton aphid spray test on infested cotton plants; details: 300 ppm, after 5 days
[3] = system: Silverleaf Whitefly (Bemisia argentifolii, Adult); assay: Silverleaf whitefly test on sprayed cotton plants; details: 300 ppm; 3 days after treatment
[4] = system: Vetch Aphid (Megoura viciae); assay: Vetch aphid bean leaf disk microtiter test; details: 800 ppm; leaf disks sprayed with 2.5 μl; 6 days
[5] = system: Green Peach Aphid (Myzus persicae); assay: Green peach aphid spray test on infested bell pepper plants; details: 300 ppm, after 5 days
[6] = system: Orchid thrips (Dichromothrips corbetti); assay: Orchid thrips petal dip test; details: 500 ppm; petals dipped; after 72 hours
Protocol: The active compounds were formulated as a 1:1 (vol:vol) water: acetone solution. Surfactant (Alkamuls EL 620) was added at the rate of 0.1% (vol/vol). Vanda orchids petals were cleaned, washed and air dried prior to spraying. Petals were dipped into the test solution for 3 seconds, air dried, placed inside a resealable plastic and inoculated with 20 adults. The treated petals were kept inside the […] room at 28-29° C. and relative humidity of 50-60%. Percent mortality was recorded after 72 hours.

Measured: mortality in comparison with untreated controls

c1cncc(-n2cc3nc(SC4CCCC4)ccc3n2)c1 [I-D24]
at least 75%: all assays above

CCSc1ccc2nn(-c3cccnc3)cc2n1 [I-D25]
not listed: [3]
at least 75%: all other assays above

COc1ccc2nc(-c3cccnc3)cn2n1 [I-E18]
at least 75%: all assays above

C[S+]([O-])CCOc1ccc2nn(-c3cccnc3)cc2n1 (centres unmarked) [I-D26]
at least 75%: all assays above

c1cncc(-n2cc3nc(OCC4CCCS4)ccc3n2)c1 (centres unmarked) [I-D65]
at least 75%: [1] | [4] | [6]
